In test [1] the target is T1, S. cerevisiae Wapl (S. cerevisiae) (UniProt Q99359).
T1 sequence: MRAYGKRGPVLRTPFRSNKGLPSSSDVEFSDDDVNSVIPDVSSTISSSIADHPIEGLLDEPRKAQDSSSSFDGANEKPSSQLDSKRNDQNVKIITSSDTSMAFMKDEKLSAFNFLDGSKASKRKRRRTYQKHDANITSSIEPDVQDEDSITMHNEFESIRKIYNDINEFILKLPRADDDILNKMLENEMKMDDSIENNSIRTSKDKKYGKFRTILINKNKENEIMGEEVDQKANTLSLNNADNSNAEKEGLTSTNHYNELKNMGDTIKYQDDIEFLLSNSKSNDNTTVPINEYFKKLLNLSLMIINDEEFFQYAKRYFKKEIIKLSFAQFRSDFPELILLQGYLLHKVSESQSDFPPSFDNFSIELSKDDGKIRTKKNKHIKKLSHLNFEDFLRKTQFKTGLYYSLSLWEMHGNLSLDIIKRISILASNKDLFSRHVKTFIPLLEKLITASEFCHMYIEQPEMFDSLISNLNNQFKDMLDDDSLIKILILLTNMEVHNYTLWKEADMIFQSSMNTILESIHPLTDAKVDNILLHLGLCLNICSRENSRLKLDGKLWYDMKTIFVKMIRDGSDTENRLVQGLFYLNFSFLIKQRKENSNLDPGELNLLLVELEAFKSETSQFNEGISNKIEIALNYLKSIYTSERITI
In words: SEC; 15 μM of each pure protein incubated at 4 °C for 2–3 h in 150 μl TAP buffer, Superdex 200 10/300; fractions by SDS–PAGE and Coomassie staining; both purified. A general note: SEC sorts molecules by how far they enter the pores of the column.

Test [2] concerns the target T2, S. cerevisiae Scc3, two differently tagged versions (S. cerevisiae), P40541.
T2 chain: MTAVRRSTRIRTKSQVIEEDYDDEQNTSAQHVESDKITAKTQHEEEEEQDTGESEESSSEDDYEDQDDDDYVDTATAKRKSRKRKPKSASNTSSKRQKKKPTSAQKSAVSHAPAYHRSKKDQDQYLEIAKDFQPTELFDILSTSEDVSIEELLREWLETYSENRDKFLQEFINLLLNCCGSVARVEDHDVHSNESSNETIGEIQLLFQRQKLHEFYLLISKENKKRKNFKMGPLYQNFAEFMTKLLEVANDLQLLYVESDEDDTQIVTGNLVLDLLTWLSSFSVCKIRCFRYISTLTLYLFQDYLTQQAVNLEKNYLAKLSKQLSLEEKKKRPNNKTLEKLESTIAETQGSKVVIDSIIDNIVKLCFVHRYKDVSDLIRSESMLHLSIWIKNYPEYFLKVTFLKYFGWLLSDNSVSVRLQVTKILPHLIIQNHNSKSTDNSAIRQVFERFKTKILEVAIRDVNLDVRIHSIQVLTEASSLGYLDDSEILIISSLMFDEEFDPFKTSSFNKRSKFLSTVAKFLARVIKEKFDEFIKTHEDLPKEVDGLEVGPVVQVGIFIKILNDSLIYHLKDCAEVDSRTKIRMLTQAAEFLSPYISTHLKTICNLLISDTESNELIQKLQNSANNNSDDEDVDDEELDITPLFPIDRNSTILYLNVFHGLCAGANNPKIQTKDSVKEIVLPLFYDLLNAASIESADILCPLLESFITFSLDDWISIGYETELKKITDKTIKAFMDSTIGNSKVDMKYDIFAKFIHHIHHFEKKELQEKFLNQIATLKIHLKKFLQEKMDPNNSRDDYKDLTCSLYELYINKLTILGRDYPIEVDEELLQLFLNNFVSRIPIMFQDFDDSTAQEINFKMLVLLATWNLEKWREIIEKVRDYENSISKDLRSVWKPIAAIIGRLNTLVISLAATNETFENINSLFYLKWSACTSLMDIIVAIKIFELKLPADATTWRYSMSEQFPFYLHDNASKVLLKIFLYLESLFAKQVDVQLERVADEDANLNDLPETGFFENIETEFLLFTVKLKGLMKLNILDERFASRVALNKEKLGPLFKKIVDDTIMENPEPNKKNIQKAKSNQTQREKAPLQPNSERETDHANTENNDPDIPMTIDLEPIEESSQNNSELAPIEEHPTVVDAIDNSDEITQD
Kind of test: pull-down; two differently tagged Sc Scc3 proteins, pure proteins mixed in an equimolar ratio; 5 μM of each in TAP buffer, resin 2 h at 4 °C (Fig. 2-fig^1B); both purified. The note with it: remark: other sources report otherwise.

Test [3] deals with S. cerevisiae Scc1 (259–451), two differently tagged versions (S. cerevisiae) (UniProt Q12158). In words: pull-down; two differently tagged versions of Scc1 (259–451) in the presence of intact Scc3 protein; 5 μM of each in TAP buffer, resin 2 h at 4 °C (Fig. 2-fig^1C); both purified.

These are yes or no findings as the source states them, for the method shown. Some binding calls cover weakened binding; strength is not graded here. For part of these data: Tags and fused reporters may be left off the sequences shown.

B1: S. cerevisiae Scc3 E202K (protein, UniProt P40541 1-1150)
chain: MTAVRRSTRIRTKSQVIEEDYDDEQNTSAQHVESDKITAKTQHEEEEEQDTGESEESSSEDDYEDQDDDDYVDTATAKRKSRKRKPKSASNTSSKRQKKKPTSAQKSAVSHAPAYHRSKKDQDQYLEIAKDFQPTELFDILSTSEDVSIEELLREWLETYSENRDKFLQEFINLLLNCCGSVARVEDHDVHSNESSNETIGKIQLLFQRQKLHEFYLLISKENKKRKNFKMGPLYQNFAEFMTKLLEVANDLQLLYVESDEDDTQIVTGNLVLDLLTWLSSFSVCKIRCFRYISTLTLYLFQDYLTQQAVNLEKNYLAKLSKQLSLEEKKKRPNNKTLEKLESTIAETQGSKVVIDSIIDNIVKLCFVHRYKDVSDLIRSESMLHLSIWIKNYPEYFLKVTFLKYFGWLLSDNSVSVRLQVTKILPHLIIQNHNSKSTDNSAIRQVFERFKTKILEVAIRDVNLDVRIHSIQVLTEASSLGYLDDSEILIISSLMFDEEFDPFKTSSFNKRSKFLSTVAKFLARVIKEKFDEFIKTHEDLPKEVDGLEVGPVVQVGIFIKILNDSLIYHLKDCAEVDSRTKIRMLTQAAEFLSPYISTHLKTICNLLISDTESNELIQKLQNSANNNSDDEDVDDEELDITPLFPIDRNSTILYLNVFHGLCAGANNPKIQTKDSVKEIVLPLFYDLLNAASIESADILCPLLESFITFSLDDWISIGYETELKKITDKTIKAFMDSTIGNSKVDMKYDIFAKFIHHIHHFEKKELQEKFLNQIATLKIHLKKFLQEKMDPNNSRDDYKDLTCSLYELYINKLTILGRDYPIEVDEELLQLFLNNFVSRIPIMFQDFDDSTAQEINFKMLVLLATWNLEKWREIIEKVRDYENSISKDLRSVWKPIAAIIGRLNTLVISLAATNETFENINSLFYLKWSACTSLMDIIVAIKIFELKLPADATTWRYSMSEQFPFYLHDNASKVLLKIFLYLESLFAKQVDVQLERVADEDANLNDLPETGFFENIETEFLLFTVKLKGLMKLNILDERFASRVALNKEKLGPLFKKIVDDTIMENPEPNKKNIQKAKSNQTQREKAPLQPNSERETDHANTENNDPDIPMTIDLEPIEESSQNNSELAPIEEHPTVVDAIDNSDEITQD
On to B1, for which the binding result in test [1] was “binds”.

B2: S. cerevisiae Scc3, two differently tagged versions, P40541 1-1150 (protein)
chain: MTAVRRSTRIRTKSQVIEEDYDDEQNTSAQHVESDKITAKTQHEEEEEQDTGESEESSSEDDYEDQDDDDYVDTATAKRKSRKRKPKSASNTSSKRQKKKPTSAQKSAVSHAPAYHRSKKDQDQYLEIAKDFQPTELFDILSTSEDVSIEELLREWLETYSENRDKFLQEFINLLLNCCGSVARVEDHDVHSNESSNETIGEIQLLFQRQKLHEFYLLISKENKKRKNFKMGPLYQNFAEFMTKLLEVANDLQLLYVESDEDDTQIVTGNLVLDLLTWLSSFSVCKIRCFRYISTLTLYLFQDYLTQQAVNLEKNYLAKLSKQLSLEEKKKRPNNKTLEKLESTIAETQGSKVVIDSIIDNIVKLCFVHRYKDVSDLIRSESMLHLSIWIKNYPEYFLKVTFLKYFGWLLSDNSVSVRLQVTKILPHLIIQNHNSKSTDNSAIRQVFERFKTKILEVAIRDVNLDVRIHSIQVLTEASSLGYLDDSEILIISSLMFDEEFDPFKTSSFNKRSKFLSTVAKFLARVIKEKFDEFIKTHEDLPKEVDGLEVGPVVQVGIFIKILNDSLIYHLKDCAEVDSRTKIRMLTQAAEFLSPYISTHLKTICNLLISDTESNELIQKLQNSANNNSDDEDVDDEELDITPLFPIDRNSTILYLNVFHGLCAGANNPKIQTKDSVKEIVLPLFYDLLNAASIESADILCPLLESFITFSLDDWISIGYETELKKITDKTIKAFMDSTIGNSKVDMKYDIFAKFIHHIHHFEKKELQEKFLNQIATLKIHLKKFLQEKMDPNNSRDDYKDLTCSLYELYINKLTILGRDYPIEVDEELLQLFLNNFVSRIPIMFQDFDDSTAQEINFKMLVLLATWNLEKWREIIEKVRDYENSISKDLRSVWKPIAAIIGRLNTLVISLAATNETFENINSLFYLKWSACTSLMDIIVAIKIFELKLPADATTWRYSMSEQFPFYLHDNASKVLLKIFLYLESLFAKQVDVQLERVADEDANLNDLPETGFFENIETEFLLFTVKLKGLMKLNILDERFASRVALNKEKLGPLFKKIVDDTIMENPEPNKKNIQKAKSNQTQREKAPLQPNSERETDHANTENNDPDIPMTIDLEPIEESSQNNSELAPIEEHPTVVDAIDNSDEITQD
B2: the binding result in test [2] was “no binding (tested: 5 μM of each purified protein)”.

B3: S. cerevisiae Scc1 (259–451), two differently tagged versions (domain or fragment, UniProt Q12158 259-451, looked up)
chain: DDDNSVEQGRRLGESIMSEEPTDFGFDLDIEKEAPAGNIDTITDAMTESQPKQTGTRRNSKLLNTKSIQIDEETENSESIASSNTYKEERSNNLLTPQPTNFTTKRLWSEITESMSYLPDPILKNFLSYESLKKRKIHNGREGSIEEPELNVSLNLTDDVISNAGTNDNSFNELTDNMSDFVPIDAGLNEAPF
notes: source: E. coli BL21(DE3) RIPL, purified (Talon beads, Superdex 200)
With B3, the binding entry in test [3] is “no binding (tested: 5 μM of each purified protein)”.

The record behind these values is paper PMC4175184, “Structure and function of cohesin’s Scc3/SA regulatory subunit” (Febs Letters, 2014).
